Results are given in words; binding and its absence hold for the method and conditions named. Binding calls can cover weak binding; strength is not graded here. Tags and fused reporters may be left off the sequences shown. For part of these data: In cells and extracts the contact can be indirect. Blank lines part the entries; values can stand above or below the molecule they belong to.
Legend:
[1] = molecular target: T1, nYFP-OsMADS16 (pCAMBIA1300S-YN-OsMADS16) (rice (Oryza sativa L.)) (UniProt Q944S9); test: split reporter; BiFC in rice protoplasts; OsMADS16 in pCAMBIA1300S-YN, candidates in pCAMBIA2300S-YC; PEG-mediated transfection; confocal microscopy; H2B as nuclear marker
T1 sequence: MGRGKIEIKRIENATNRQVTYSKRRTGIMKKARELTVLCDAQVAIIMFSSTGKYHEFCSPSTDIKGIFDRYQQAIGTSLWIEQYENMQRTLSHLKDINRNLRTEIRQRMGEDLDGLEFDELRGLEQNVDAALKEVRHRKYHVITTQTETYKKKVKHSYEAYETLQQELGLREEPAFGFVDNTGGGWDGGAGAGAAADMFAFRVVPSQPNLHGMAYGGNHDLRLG

By UniProt entry, the sequences of proteins in these tests, tags left out. Where a name states a change or a piece, a line headed by the entry shows the natural chain unless it says otherwise.
UniProt Q9LI00: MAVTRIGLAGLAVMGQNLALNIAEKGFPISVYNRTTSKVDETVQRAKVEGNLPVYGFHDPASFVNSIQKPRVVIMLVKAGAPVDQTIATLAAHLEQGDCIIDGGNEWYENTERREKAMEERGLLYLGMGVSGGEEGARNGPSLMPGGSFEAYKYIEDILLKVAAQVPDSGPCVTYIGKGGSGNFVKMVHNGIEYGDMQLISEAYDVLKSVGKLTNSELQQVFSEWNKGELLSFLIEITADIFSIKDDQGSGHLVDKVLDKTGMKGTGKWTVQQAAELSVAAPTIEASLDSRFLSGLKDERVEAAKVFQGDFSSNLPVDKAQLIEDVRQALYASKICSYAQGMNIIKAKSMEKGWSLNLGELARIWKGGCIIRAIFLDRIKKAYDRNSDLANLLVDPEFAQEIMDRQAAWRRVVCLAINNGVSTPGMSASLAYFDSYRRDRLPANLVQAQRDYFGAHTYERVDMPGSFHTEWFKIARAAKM

[2] = molecular target: T2, OsMADS16 (pGBKT7-OsMADS16, GAL4 DNA-binding domain fusion) (rice (Oryza sativa L.)) (UniProt Q944S9); test: two-hybrid; yeast AH109 cotransformed with pGBKT7-OsMADS16 (bait) and pGADT7 with the full-length CDS of each candidate (prey); selected on SD/-Leu/-Trp/-His and higher stringency SD/-Leu/-Trp/-His/-Ade plates
T2 sequence: T1 sequence

[3] = molecular target: GFP-26S (pCXSN-nGFP) (rice (Oryza sativa L.)); test: co-IP; rice protoplasts cotransformed with pCAMBIA2300-OsMADS16-Flag and pCXSN-nGFP-candidate; lysate bound to GFP-Nanoab-Agarose 2 h at 4°C, washed four times; western blot with anti-Flag or anti-GFP
[4] = molecular target: GFP-OsCOP9 (pCXSN-nGFP) (rice (Oryza sativa L.)); test: as above
[5] = molecular target: GFP-OsbHLH40 (pCXSN-nGFP) (rice (Oryza sativa L.)); test: as above
[6] = molecular target: GFP-UN1 (pCXSN-nGFP) (rice (Oryza sativa L.)); test: as above
[7] = molecular target: GFP-SLG (pCXSN-nGFP) (rice (Oryza sativa L.)); test: as above
[8] = molecular target: GFP-ES43 (pCXSN-nGFP) (rice (Oryza sativa L.)); test: as above
[9] = molecular target: GFP-Os6PGDH (pCXSN-nGFP) (rice (Oryza sativa L.)) (UniProt Q9LI00); test: as above

binding [1]: binds
Molecule: cYFP-26S (pCAMBIA2300S-YC) (rice (Oryza sativa L.))

binding [1]: binds
Molecule: cYFP-Os6PGDH (pCAMBIA2300S-YC) (from UniProt Q9LI00)

binding [1]: binds
Molecule: cYFP-OsCOP9 (pCAMBIA2300S-YC) (rice (Oryza sativa L.))

binding [1]: binds
Molecule: cYFP-ES43 (pCAMBIA2300S-YC) (rice (Oryza sativa L.))

binding [1]: binds
Molecule: cYFP-OsbHLH40 (pCAMBIA2300S-YC) (rice (Oryza sativa L.))

binding [1]: binds
Molecule: cYFP-SLG (pCAMBIA2300S-YC) (rice (Oryza sativa L.))

binding [2]: binds
Molecule: OsbHLH40 (pGADT7 prey) (from UniProt Q10NS6)

binding [2]: binds
Molecule: ES43 (pGADT7 prey) (from UniProt Q7EYS4)

binding [2]: binds
Molecule: OsCOP9 (pGADT7 prey) (from UniProt Q6ZJ47)

binding [1]: binds
Molecule: cYFP-UN1 (pCAMBIA2300S-YC) (rice (Oryza sativa L.))

binding [2]: binds
Molecule: 26S (ATP-dependent 26S proteasome regulatory subunit; pGADT7 prey) (rice (Oryza sativa L.))

binding [2]: binds
Molecule: Os6PGDH (pGADT7 prey) (from UniProt Q9LI00)

binding [2]: binds
Molecule: UN1 (pGADT7 prey) (from UniProt Q0JRA3)

binding [2]: binds
Molecule: SLG (pGADT7 prey) (from UniProt Q6YYV8)

binding [3]: binds
binding [4]: binds
binding [5]: binds
binding [6]: binds
binding [7]: binds
binding [8]: binds
binding [9]: binds
B1: OsMADS16-Flag (pCAMBIA2300-OsMADS16-Flag) (protein, UniProt Q944S9 1-224)
chain: T1 sequence

— PMC6705763
